# Primary screen of a compound library

By UniProt entry, the sequences of proteins in these tests, tags left out.
UniProt I6X8D2, whole entry: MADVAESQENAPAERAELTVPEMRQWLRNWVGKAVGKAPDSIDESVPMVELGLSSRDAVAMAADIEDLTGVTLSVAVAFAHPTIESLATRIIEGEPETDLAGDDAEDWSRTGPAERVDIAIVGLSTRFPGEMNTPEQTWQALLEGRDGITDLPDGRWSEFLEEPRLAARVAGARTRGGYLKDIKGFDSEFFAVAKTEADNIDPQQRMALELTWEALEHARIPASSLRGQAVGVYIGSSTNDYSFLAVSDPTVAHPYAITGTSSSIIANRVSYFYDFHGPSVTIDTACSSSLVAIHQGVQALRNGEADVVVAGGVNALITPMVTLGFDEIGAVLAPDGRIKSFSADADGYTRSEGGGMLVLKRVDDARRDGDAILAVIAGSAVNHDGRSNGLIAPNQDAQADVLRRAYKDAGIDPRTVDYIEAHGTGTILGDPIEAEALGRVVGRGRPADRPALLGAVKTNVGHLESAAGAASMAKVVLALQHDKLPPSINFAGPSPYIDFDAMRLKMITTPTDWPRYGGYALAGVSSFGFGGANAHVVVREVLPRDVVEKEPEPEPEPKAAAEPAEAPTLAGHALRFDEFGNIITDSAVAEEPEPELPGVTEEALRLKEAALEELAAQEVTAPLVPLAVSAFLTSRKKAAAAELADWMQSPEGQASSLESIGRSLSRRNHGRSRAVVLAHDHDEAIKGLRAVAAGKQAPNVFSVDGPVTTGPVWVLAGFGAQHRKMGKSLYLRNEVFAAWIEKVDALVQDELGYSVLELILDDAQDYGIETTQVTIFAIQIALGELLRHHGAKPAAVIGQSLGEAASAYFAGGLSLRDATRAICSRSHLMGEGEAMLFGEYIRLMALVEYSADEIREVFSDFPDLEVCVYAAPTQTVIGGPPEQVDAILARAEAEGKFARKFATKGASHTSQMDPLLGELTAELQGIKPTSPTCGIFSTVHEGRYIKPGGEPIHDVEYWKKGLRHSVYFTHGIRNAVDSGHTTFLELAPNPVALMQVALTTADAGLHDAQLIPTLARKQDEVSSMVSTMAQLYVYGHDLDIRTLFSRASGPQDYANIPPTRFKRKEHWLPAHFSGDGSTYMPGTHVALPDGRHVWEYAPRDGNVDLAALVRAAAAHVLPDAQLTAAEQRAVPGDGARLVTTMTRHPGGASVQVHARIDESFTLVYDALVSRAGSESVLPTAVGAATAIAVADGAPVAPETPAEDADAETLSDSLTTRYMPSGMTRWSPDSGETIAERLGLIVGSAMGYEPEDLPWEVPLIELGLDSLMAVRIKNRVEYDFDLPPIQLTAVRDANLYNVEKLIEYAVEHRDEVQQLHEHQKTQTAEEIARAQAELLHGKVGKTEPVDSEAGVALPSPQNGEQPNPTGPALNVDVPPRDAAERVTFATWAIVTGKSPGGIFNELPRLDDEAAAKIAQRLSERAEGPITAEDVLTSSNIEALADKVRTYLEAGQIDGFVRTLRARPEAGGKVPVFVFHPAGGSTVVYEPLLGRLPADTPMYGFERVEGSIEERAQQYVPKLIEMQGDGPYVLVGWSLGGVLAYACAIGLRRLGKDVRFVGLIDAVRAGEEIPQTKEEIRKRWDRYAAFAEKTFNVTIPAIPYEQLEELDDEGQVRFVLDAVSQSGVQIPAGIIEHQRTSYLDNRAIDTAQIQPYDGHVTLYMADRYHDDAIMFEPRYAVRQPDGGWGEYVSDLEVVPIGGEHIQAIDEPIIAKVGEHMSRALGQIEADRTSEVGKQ

Measurements from “University of Dundee, Small-Polar-MMV Screening Library” (2021), ChEMBL document CHEMBL3988442.

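Enzyme assay of the thioesterase domain of polyketide synthase 13; the read-out is not stated. Target: Polyketide synthase Pks13, Mycobacterium tuberculosis (UniProt I6X8D2). Tested at 30 µM. The record gives no direction; the compounds picked for IC50 retests had high values, so higher reads as stronger inhibition. About 67,000 compounds were tested under these conditions; 0.46% (about 300) showed 50% or more at least once.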

Results are given as percent effect.
The record does not define 0% and 100%; most values in the screen are far below 50% and negative numbers occur (in some assays of this library far below -100).
Compounds were drawn at random from those tested, without regard to their results.

{"compound": "Cc1cc(C(=O)Nc2ccc(N3CCCC3)cn2)ccc1-n1cncn1", "percent effect": -38.74}
{"compound": "O=C(C1CCCCN1Cc1nc(-c2ccco2)no1)N1CCCC1", "stereo": "stereo unspecified", "percent effect": -3.29}
{"compound": "CN(C)Cc1nn(C)c2c1CCN(S(=O)(=O)c1cccs1)C2", "percent effect": -4.825}
{"compound": "CN(C)c1ccc(C(=O)NCc2cccnc2-n2cncn2)cc1F", "percent effect": 0.9893}
{"compound": "Cc1nc(C(=O)N(C)CC(=O)N(C)C)nn1-c1ccccc1C(C)C", "percent effect": -5.297}
{"compound": "COCC(=O)N1CCC(C)(c2cc(O)[nH]n2)CC1", "percent effect": 6.926}
{"compound": "CC(C)C(NC(=O)c1nc(N2CCOCC2)ncc1Cl)c1cccs1", "stereo": "stereo unspecified", "percent effect": -0.8154}
{"compound": "O=C(Cn1nc(Br)nc1Br)N1CCOCC1", "percent effect": 5.04}
{"compound": "CC(C)c1cc2c(s1)NC(c1ccccn1)NC2=O", "stereo": "stereo unspecified", "percent effect": 5.852}
{"compound": "Cc1ccc(OCCC(=O)N(C)CCC#N)cc1C", "percent effect": 12.29}
{"compound": "c1cncc(CN2CCC(c3ccc4c(c3)OCO4)CC2)c1", "percent effect": -3.101}
{"compound": "CC(=O)N1CC[C@H]2OCC[C@@]2(C(=O)NCc2ccco2)C1", "percent effect": -7.942}
{"compound": "Cc1ccnc(NC(=O)c2ccc(Cl)o2)c1", "percent effect": -6.103}
{"compound": "CCc1ccc(CNC(=O)N2CCN(Cc3cc(C)on3)CC2)s1", "percent effect": -0.1335}
{"compound": "COc1ncc(-c2ccc(O)cc2)c(OC)n1", "percent effect": -19.04}
{"compound": "COc1cc(C(=O)N2CCCC(c3cc(C)[nH]n3)C2)cc(OC)c1C", "stereo": "stereo unspecified", "percent effect": -7.13}
{"compound": "Cc1ccc(N2CC[C@H](OCC3CC3)[C@@H]2Cc2ccncc2)nn1", "percent effect": -4.034}
{"compound": "CC(C)c1ccc(-c2nonc2N)cc1", "percent effect": 21.77}
{"compound": "CN(C)CC1CN(c2ccc(C#N)cn2)CCO1", "stereo": "stereo unspecified", "percent effect": -2.614}
{"compound": "Cn1cc(CNc2nc3cc(Cl)ccc3n2C)cn1", "percent effect": -6.053}
{"compound": "CCC(C)(NCC(N)=O)c1nccs1", "stereo": "stereo unspecified", "percent effect": -20.51}
{"compound": "Cc1cnn(CC2CCCCN2C(=O)c2ccc(NC3CC3)nc2)c1", "stereo": "stereo unspecified", "percent effect": -16.06}
{"compound": "CC1CCc2nc(O)c(C(=O)NCc3ccccc3F)cc2C1", "stereo": "stereo unspecified", "percent effect": 6.113}
{"compound": "CN1CCN(C[C@H]2CC[C@@H](Cc3ccc(CN4CCCC4)cc3)O2)CC1", "percent effect": -22.86}
{"compound": "c1ccc(CN2CCC3(CC2)CCN(Cc2cccs2)C3)nc1", "percent effect": 3.063}
{"compound": "CC(=O)NCc1noc2c1CN(Cc1cccs1)CC2", "percent effect": -32.24}
{"compound": "Cc1ccc(-c2noc(C(O)CC(C)C)n2)nn1", "stereo": "stereo unspecified", "percent effect": -37.62}
{"compound": "NC(=O)C1CN(c2ccc(Br)cn2)CCO1", "stereo": "stereo unspecified", "percent effect": 0.3237}
{"compound": "O=C(c1occc1CN1C(=O)Cc2ccccc21)N1CC(O)C1", "percent effect": -30.63}
{"compound": "c1cncc(-c2ccc3c(c2)C2(CCNCC2)CC3)c1", "percent effect": -13.38}
{"compound": "Cc1ccoc1C(=O)NCCOc1ncc(Cl)cc1Cl", "percent effect": -34.68}
{"compound": "CS(=O)(=O)NCCC1CN(Cc2ccccc2F)CCO1", "stereo": "stereo unspecified", "percent effect": -15.45}
{"compound": "COc1ccc(CN2CCCn3cnc(COCC4CC4)c3C2)cc1", "percent effect": 17.68}
{"compound": "CS(=O)(=O)CCC(=O)NC1CC(c2ccccc2Cl)C1", "stereo": "stereo unspecified", "percent effect": -25.01}
{"compound": "CCCOC1CCCN(c2ncnc3c2CCN(C(=O)C2CC2)C3)C1", "stereo": "stereo unspecified", "percent effect": 14.13}
{"compound": "O=C(Cc1ccsc1)N1CCn2cc(CN3CCCC3)nc2C1", "percent effect": -24.54}
{"compound": "COCCC(=O)NCC1Cn2nnc(-c3cccc(F)c3)c2CO1", "stereo": "stereo unspecified", "percent effect": -5.533}
{"compound": "O=C(Nc1ccc(-n2cncn2)nc1)N(CC1CCOC1)C1CC1", "stereo": "stereo unspecified", "percent effect": -26.77}
{"compound": "COc1cccc(-c2noc3c2CN(c2nc(C)ncc2C)CC3)c1", "percent effect": -39.99}
{"compound": "Cn1ncc2c(=O)[nH]c(CN3CCCC3c3cccs3)nc21", "stereo": "stereo unspecified", "percent effect": -27.1}
{"compound": "COc1cccc(C(CO)NC(=O)Cc2ccc(F)c(Br)c2)c1", "stereo": "stereo unspecified", "percent effect": -38.52}
{"compound": "COC(=O)[C@@H](NC(=O)c1coc(COc2cccc(F)c2)n1)C(C)C", "percent effect": -14.68}
{"compound": "CCCNC(=O)CCNC(=O)Cc1nc(-c2ccco2)oc1C", "percent effect": -7.012}
{"compound": "CN(CCO)Cc1nnc(C2CCN(C(=O)c3cccnc3)CC2)n1C", "percent effect": -11.42}

The first 6 entries again:

{"compound": "Cc1cc(C(=O)Nc2ccc(N3CCCC3)cn2)ccc1-n1cncn1", "percent effect": -38.74}
{"compound": "O=C(C1CCCCN1Cc1nc(-c2ccco2)no1)N1CCCC1", "stereo": "stereo unspecified", "percent effect": -3.29}
{"compound": "CN(C)Cc1nn(C)c2c1CCN(S(=O)(=O)c1cccs1)C2", "percent effect": -4.825}
{"compound": "CN(C)c1ccc(C(=O)NCc2cccnc2-n2cncn2)cc1F", "percent effect": 0.9893}
{"compound": "Cc1nc(C(=O)N(C)CC(=O)N(C)C)nn1-c1ccccc1C(C)C", "percent effect": -5.297}
{"compound": "COCC(=O)N1CCC(C)(c2cc(O)[nH]n2)CC1", "percent effect": 6.926}